In PubChem BioAssay AID1508600 (Functional Genomics Laboratory (NCATS/FGL), 2020) one finds z-score data, which are given here for 107 sequences.

Screen size: about 53,000 sequences; about 3,700 (7%) were called active.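 Rule for the calls: active = gene knockdowns whose robust z-score for IL-1 alpha signal is at least 2 or at most -2, so actives lie on both sides; inactive = the rest.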 The list shows a part of the results.

The nature of the test: Components of the Cytosolic LPS Sensing Pathway: Gene Identification via Genome-wide siRNA Screen.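 Note: robust z of the log signal after scaling to non-targeting control siRNA wells of the plate.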 As to conditions: RAW264.7 macrophages, IL-1a HTRF, actives lie on both sides, screened at 100 nM (by protocol), cells primed 5 h with Pam3CSK4 first. The gist of the method:
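RAW264.7 mouse macrophages reverse-transfected with single siRNAs (100 nM final) for 48h, primed with Pam3CSK4 for 5 hours, then transfected with LipidA for 24 hour. Supernatant IL-1a read by HTRF; values normalized to negative-control median, log-transformed robust z-scores.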
In general terms: Time-resolved FRET reads energy transfer from a long-lived donor to a nearby acceptor.
Regarding GCCACCGAACCUAUAAAGCTT against Scd4, the z-score was inactive: 0.265.

Consider CCUAACUUCAGAACUGAAATT against Sh3gl3, for which the z-score is inactive: -0.806.

In the case of GGCCCAGCAGACAACUUUATT against Sgca, the z-score is inactive: 0.797.

Take UGCCCUUCCUAUUUUAUAATT against Ly6k: the z-score is inactive: -0.378.

As for GGGAUCAAAUGUCUUUCCUTT against Wdr19, the z-score is inactive: -0.794.

Regarding CGGACGAUUCGUGUCAAUUTT against Ppie, the z-score was inactive: 0.619.

As to GGCACUUACUGUGAAAUUGTT against Tm9sf3, the z-score is inactive: -0.151.

With CGAACCGAACACAUAUAAATT against Scnn1a, the z-score was inactive: 0.303.

For the sequence GCACUGUUCUCAAAGUUAATT against Ddx3x, the z-score was inactive: -0.248.

With GCUGAAAGUAUUCAUGUAATT against Sec13, the z-score was inactive: -1.6.

Consider GGCCCUUCCAGAAGAUACATT against Speer3, for which the z-score is inactive: -1.1.

With CCAUUACUCGCAUCUGGGATT against Tfap2c, the z-score is inactive: 0.561.

As for CGAUCCAACCAGAUGAACATT against Ralgps1, the z-score is inactive: 0.383.

In the case of GGUUAUGGAAGAAAUUGCUTT against Tekt1, the z-score is inactive: 0.148.

On to GGUCAAUUCGGAGGUCCAGTT against Zfp385a, for which the z-score is inactive: -0.51.

Consider GGAAGAUGUCCAAACCCGCTT against Tspan4, for which the z-score is inactive: 0.671.

In the case of GGCUGAGAUUAUCACUGUCTT against Vps25, the z-score is inactive: -0.518.

Turning to GGACAUGUACAGUUUAUUGTT against Cacna1a, the z-score was inactive: 0.723.

For the sequence GGAGUACUUCGUGUUCCGGTT against Tprgl, the z-score is inactive: -0.945.

For the sequence GGAAAGAUGUCAAAGAAAUTT against Gnat2, the z-score is inactive: -1.14.

Take GCAGUGCACAGAAAUGGAATT against Olfr12: the z-score was inactive: -1.05.

Turning to GGAGAUGGCUAUAUUCUGATT against Lipa, the z-score is inactive: 0.0668.

In the case of GGAGAAGGAAUAAGUUUUGTT against Synj2bp, the z-score was inactive: 1.07.

Regarding CCACUUGUAGACUUGAUUUTT against Jag1, the z-score was inactive: 0.618.

As to GGUGGAAGAUAUCAACUAGTT against Ube2k, the z-score was inactive: 1.27.

As for “GGAGGCACGAAUUGCUGCUTT against Gadd45gip1”, the z-score was inactive: 0.178.

CCUGUCCUCAUGACAUGAUTT against Sypl2: the z-score was inactive: 0.916.

GCAUAUGGAGCAGUCAUUGTT against Gm6116: the z-score is inactive: -0.627.

As for GCUGUUAACAGCACAACCATT against Slc36a2, the z-score was inactive: 1.3.

As to GGGUGACCUUUCCAGAUGATT against Cldn13, the z-score is inactive: -0.846.

For the sequence CCAAGUAUAAGAUCGUGACTT against Nod1, the z-score was inactive: -0.822.

GAUGCUGUAGUCUUGUGAGTT against Lce1a2: the z-score was inactive: 0.708.

CCCAUAUUAAUUAUGGCGUTT against Hadha: the z-score is inactive: -0.189.

As to CCUACUCUAUCCCAAGGUCTT against Spatc1l, the z-score was inactive: -1.02.

Regarding GGAGAUCCCAACCACGGAUTT against Otor, the z-score is inactive: 1.52.

Take CGAUAACAGCUGUUAACGUTT against Mttp: the z-score is inactive: 1.9.

With GGGACAACAUUCAAAGGUCTT against Hdgfl1, the z-score is inactive: -0.322.

Consider CGUGGGAUUUAAUGAUCAATT against Nid2, for which the z-score was inactive: 1.09.

Turning to CGGCCUGACAUCAACCUUGTT against Fam193b, the z-score is inactive: -0.915.

As for GCAUCCAUCAAAUCAAAAUTT against Met, the z-score is active: 3.03.

For the sequence GGAAUUUUGACAGAAAACCTT against Cradd, the z-score was inactive: 0.343.

Regarding GGACAGUAAGGAUAAAAGCTT against Hsd3b3, the z-score was inactive: -0.883.

Take GGACGUGGUCCAUAGACCATT against Cd276: the z-score was inactive: 1.9.

For the sequence GGAAGAAACUGUAUGAAAGTT against Mycs, the z-score was inactive: -0.204.

In the case of GGGCUUGUGUAAAGUGGAUTT against Kin, the z-score is inactive: 0.298.

Consider GGAAGCUAGAUUUUGAGUATT against Vmn1r66, for which the z-score is inactive: 0.769.

Consider GGCCCUCUAUGAGUAUCUGTT against Olfr536, for which the z-score is inactive: -1.02.

CCCGUCACCACUUAACAUGTT against Rasal2: the z-score was inactive: 0.699.

With GGACCGAAACUCAGGCUGATT against Adra1d, the z-score is inactive: -0.49.

On to CCCUUUUGUGACCUUGUUATT against Scoc, for which the z-score is inactive: -0.22.

With GGACAUCCAUCAGUACAGGTT against Hras, the z-score was inactive: 0.812.

With CCCUGUCAAAAAAGUGGCCTT against Olfr1151, the z-score is inactive: 1.4.

“GGAAUUAAUGACCAAGUUATT against A830018L16Rik”: the z-score was inactive: 0.0225.

With GGCCAGUGUAUUUGACCUGTT against Slc22a18, the z-score is inactive: -1.24.

Take CCAGAACCCUAGACUUUGCTT against Wfdc6b: the z-score is inactive: 0.362.

Consider CCGUGGGACCAGAGUUAAATT against Cd300lb, for which the z-score was inactive: 0.691.

Regarding GGAAGAAGGCUGGUACUUATT against Lao1, the z-score was inactive: -1.05.

As for GGUGAUCACUAACCUACUATT against Fancm, the z-score was inactive: -0.316.

Take “GGUUUAUUCAUUAUUCUCCTT against 8030462N17Rik”: the z-score is inactive: -1.57.

With CCUAUGGCCAUGAUCCUUATT against Olfr575, the z-score is inactive: 1.29.

Regarding GGUUUUAGAAUGUCUUUCATT against Rida, the z-score was inactive: -0.00853.

For the sequence GACUAUCUCAUUCUCAGCUTT against Olfr1238, the z-score was inactive: -0.358.

Regarding “GGCACUAGAAGAGAGGUACTT against 4932416K20Rik”, the z-score is inactive: 0.768.

For GCAACCUGUCCCUUCUUGATT against Olfr225, the z-score was inactive: 1.53.

Take GAAGCACAACCUCGGCUUUTT against AY074887: the z-score is inactive: 0.448.

On to GCUGGAUUUGACAUUAUCGTT against Olfr151, for which the z-score is inactive: 0.509.

Turning to CCUUAAGUGUGUCAGGGCATT against Sdhaf4, the z-score is inactive: -1.99.

For GGUGUGUUAAUUUCUAGAUTT against Frs2, the z-score is inactive: 0.945.

GGUUGAAGCAGAAGAUAAUTT against Asnsd1: the z-score is active: -2.2.

Take GCCAAGUUCAUCAAGAAGCTT against Dapk3: the z-score was inactive: 0.0472.

Take GGGUACGUGAAGAAACUUCTT against Meig1: the z-score was active: -2.23.

CGAAAUUCGGAAUGUAUAUTT against Tnp1: the z-score is inactive: -1.85.

As for GGUGAUGCUGGAAUCUUCCTT against Svop, the z-score was inactive: 0.216.

Consider UUGUCAUUCACUUGAUGAATT against H2bu2, for which the z-score is inactive: 0.238.

Consider GGAUUACCUGAACAGCGAUTT against Zfhx3, for which the z-score is inactive: -0.738.

As for GGCAUUAUCACAUAAAGGATT against Tec, the z-score was inactive: 0.0984.

Turning to GCAGUGAACCGUAUUGGACTT against Ncam1, the z-score is inactive: 0.406.

CCGUCACUUUUAACCAUGUTT against Speg: the z-score was active: 4.19.

Turning to GGGCUCUUCUCAUUCUAUATT against Olfr551, the z-score was inactive: -0.232.

Regarding GGAUGUUUUCCCGACAAGATT against Angptl1, the z-score is inactive: -1.27.

Consider GGGAAAGCCAUCCUUCACUTT against Erich5, for which the z-score is inactive: 0.288.

For CCAGACUGAGAAGAUAUGATT against Meox2, the z-score was inactive: -0.146.

In the case of GCUCCAGAAUAUAUUGUUCTT against Arfgap3, the z-score was inactive: 1.39.

Consider GCAGGCCUUGUAUAGUGUGTT against Ccar1, for which the z-score was inactive: -0.63.

Regarding GCCAAGCAUAAUCUAAUGATT against Prpf4b, the z-score is inactive: 0.851.

As to GGUAGAGAGCUCAACAGGGTT against Klrb1c, the z-score is inactive: 0.287.

Take GCAUUACUAUGACCGAUCCTT against Magea4: the z-score was inactive: 0.239.

On to GCGAUGGAUUGUAAAAUUATT against Defb1, for which the z-score was inactive: -0.0394.

Consider GGCCAUUUAUCCAUGGUUGTT against Zdhhc17, for which the z-score was inactive: 0.954.

For CCACUCCAAGACCUACUCCTT against Large1, the z-score is inactive: 0.638.

With GGAAGUCUAUGGUUUUUAGTT against Csnk2b, the z-score is active: 2.97.

Turning to GCCAGAAAGCGUGUCAGAUTT against Hddc2, the z-score was inactive: 1.65.

With GGCUUUUAAGGUCAUCCCUTT against Bysl, the z-score was inactive: -0.737.

In the case of “GGGAAUUUUGGAAGAGUCUTT against F630003A18Rik”, the z-score is active: -3.23.

Turning to GGAGCUCCACCCUUAUUCATT against Zfp113, the z-score was inactive: 0.775.

In the case of GGUAUUCGAGACCUGAUUATT against Frem2, the z-score was inactive: -1.28.

As for CCUAGAAUUCAUGGAAAAUTT against Olfr1196, the z-score was inactive: -1.02.

On to GGGUGACAUGAUUUUAACUTT against Fbh1, for which the z-score is inactive: -0.727.

As to GGACAGGCAGAGUUUACAGTT against Rit1, the z-score was inactive: -1.58.

Regarding GCUGACCUUCAUUCAUAUATT against Vmn1r27, the z-score is active: -2.06.

Take CGGAUAACGGGAAUUUUAUTT against Rpia: the z-score is inactive: 0.535.

As to GCAUUUCCCAUCCUCUUGATT against Mrpl51, the z-score was inactive: -0.174.

For the sequence GGAUGUUCUAAAGAAGAGATT against Eri1, the z-score is inactive: -0.547.

With GGAUCCAAGUUCCUGGCUCTT against Rtbdn, the z-score was inactive: 0.256.

Consider GCCAUUAAGGAAAUGUUCUTT against Olfr426, for which the z-score was inactive: -0.969.

For the sequence GGAAGUUUUUGAGAAUGGGTT against Ppp3cc, the z-score is inactive: -0.38.

As to GGGAUAUAGAACUGUUGAUTT against Olfr1048, the z-score is inactive: -0.927.
